The target of this experiment is T1, ZMYND12 (Zinc Finger, MYND domain containing 12) (mouse (endogenous in testis)) (UniProt A2BGJ5).
T1 sequence: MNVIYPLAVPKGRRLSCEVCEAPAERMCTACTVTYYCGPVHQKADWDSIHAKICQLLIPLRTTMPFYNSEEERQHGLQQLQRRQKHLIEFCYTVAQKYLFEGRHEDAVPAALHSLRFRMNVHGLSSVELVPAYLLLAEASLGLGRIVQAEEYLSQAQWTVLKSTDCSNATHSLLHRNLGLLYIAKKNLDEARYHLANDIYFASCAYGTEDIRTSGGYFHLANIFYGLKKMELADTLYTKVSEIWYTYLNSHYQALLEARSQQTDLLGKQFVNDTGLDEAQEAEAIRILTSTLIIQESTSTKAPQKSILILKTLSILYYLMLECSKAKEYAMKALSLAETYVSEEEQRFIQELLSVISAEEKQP
Briefly: affinity purification with mass spectrometry; immunoprecipitation with anti-ZMYND12 (anti-IgG as control) from wild-type mouse testis extract; SDS-PAGE, silver staining, bands cut out, LC-MS/MS; n = 3.

These are yes or no findings as the source states them, for the method shown. Binding seen in cells or lysates may run through a third protein. Here binding means that the protein was enriched with, or labelled near, the bait; the list need not be complete.

B1: TTC29 (protein, UniProt Q80VM3 1-471)
chain: MATFPPLPMTHTRLAILARQKLPCSSKKIPRAQLIKEKEDIDYYLEQNFKGLSKEEVAAHRNSYKKSICVDMLRDGFHKSFTELFALMEQWDKLPEAAKAQSLFWQQRPLEDQPDKLDNFYHYLTRAEAAERKGYYEEVYNNLYALACYFDNSEDKWVRNHFYERCFNIAQLIKADGGKKEAEAESHMGLLFEEEGELLKAAEHYEAFHELTHGRLWKDGTGQLLNLVACESLVRTYRLLSDRMLENKDYKQAIKILIKASEIAREGNDRSMEGEASYYLGLAHLASGEYETALTVLNRYSEISTSLDDDHGLGRAYEAIAKALQSQGETTEAINYLEKFVTIARNNLQSLDMIRACTMLGDIYNEKGQYSKASEYFQQAFSTAMELMKTALMDETKVHYGIARAHQMMLAMKGYIESADSNGLNCLLSWKETRTQIEYDPILGESRRATEDNIYQLPDAEEETRRSPENQ
Consider B1, for which the binding entry was “binds”.
